Source: publication PMC5133636
These are yes or no findings as the source states them, for the method shown. Binding seen in cells or lysates may run through a third protein. Some results given as binding are weak or reduced against the parent protein; the word gives no strength.

Sequences of proteins named here, by UniProt entry; tags and fusion partners are left off. Residues count along the entry.
UniProt Q91YI4: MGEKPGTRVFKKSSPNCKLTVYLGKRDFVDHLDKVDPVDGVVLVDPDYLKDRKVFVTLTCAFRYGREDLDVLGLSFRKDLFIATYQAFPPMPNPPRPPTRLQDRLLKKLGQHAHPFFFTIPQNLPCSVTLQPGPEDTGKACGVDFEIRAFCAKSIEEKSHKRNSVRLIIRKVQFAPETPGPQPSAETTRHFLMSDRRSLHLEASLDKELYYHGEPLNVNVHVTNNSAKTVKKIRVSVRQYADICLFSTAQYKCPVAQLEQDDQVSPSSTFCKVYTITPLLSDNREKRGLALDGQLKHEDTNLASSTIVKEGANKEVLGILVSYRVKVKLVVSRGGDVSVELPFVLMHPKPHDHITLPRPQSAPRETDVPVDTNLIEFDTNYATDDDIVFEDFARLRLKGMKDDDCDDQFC
UniProt P97772, residues 21-1199: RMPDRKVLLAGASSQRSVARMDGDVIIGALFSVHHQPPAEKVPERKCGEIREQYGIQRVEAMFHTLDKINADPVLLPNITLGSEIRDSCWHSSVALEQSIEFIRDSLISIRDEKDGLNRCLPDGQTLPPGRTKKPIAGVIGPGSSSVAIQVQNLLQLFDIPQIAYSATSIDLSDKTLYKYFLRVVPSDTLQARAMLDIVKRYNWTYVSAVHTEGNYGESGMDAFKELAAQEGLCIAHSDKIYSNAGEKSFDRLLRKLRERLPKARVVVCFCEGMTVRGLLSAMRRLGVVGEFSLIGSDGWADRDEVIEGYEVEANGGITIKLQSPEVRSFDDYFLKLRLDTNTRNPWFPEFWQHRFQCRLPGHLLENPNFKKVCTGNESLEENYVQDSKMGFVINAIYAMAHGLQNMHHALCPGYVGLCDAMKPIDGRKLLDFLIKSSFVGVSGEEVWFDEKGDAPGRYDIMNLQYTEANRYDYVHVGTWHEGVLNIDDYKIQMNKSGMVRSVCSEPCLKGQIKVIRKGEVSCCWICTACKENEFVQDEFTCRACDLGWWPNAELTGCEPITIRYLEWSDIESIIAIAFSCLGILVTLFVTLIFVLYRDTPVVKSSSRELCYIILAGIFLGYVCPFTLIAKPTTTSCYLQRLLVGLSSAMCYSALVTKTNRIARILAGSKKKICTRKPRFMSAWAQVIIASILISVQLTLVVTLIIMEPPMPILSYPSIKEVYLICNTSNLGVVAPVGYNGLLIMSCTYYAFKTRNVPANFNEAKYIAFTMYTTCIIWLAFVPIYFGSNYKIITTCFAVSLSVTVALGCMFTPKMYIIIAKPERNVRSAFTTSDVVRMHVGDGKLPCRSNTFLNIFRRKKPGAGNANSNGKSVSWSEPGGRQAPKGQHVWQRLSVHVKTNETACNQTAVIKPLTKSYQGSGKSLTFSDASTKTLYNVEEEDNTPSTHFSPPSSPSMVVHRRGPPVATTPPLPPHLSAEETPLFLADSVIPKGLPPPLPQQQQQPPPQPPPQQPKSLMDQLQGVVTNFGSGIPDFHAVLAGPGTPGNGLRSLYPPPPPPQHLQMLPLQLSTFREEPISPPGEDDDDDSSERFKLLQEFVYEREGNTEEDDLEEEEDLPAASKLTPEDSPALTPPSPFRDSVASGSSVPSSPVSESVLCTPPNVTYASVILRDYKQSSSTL

Target: β-arrestin2 (mouse (endogenous in brain tissue)) (UniProt Q91YI4)
Assay: co-IP; endogenous proteins; wild-type mouse cortex, hippocampus and cerebellum homogenised in 25 mM Tris, 150 mM NaCl, 1 mM EDTA, 1% Triton X-100; 1 mg lysate protein, anti-βarr2 antibody on protein A/G beads overnight at 4 °C; blot for mGluR1 or mGluR5

Question: “metabotropic glutamate receptor 1 (mGlu1 receptor) (from UniProt P97772 21-1199)” was tested. Which binding did it give?
Answer: binds
